The results in this text go back to article PMC5996148.

Holding throughout (assay): protein microarray (ProtoArray v5.0), streptavidin-Alexa Fluor 647
Common to all, as to settings: 3'-biotin; 20 mM Tris (pH 7.5), 5 mM MgCl2, 100 mM KCl, 0.1% Tween-20, A/T-rich and random oligonucleotide blockers; temperature not stated; high values mean tight binding

For experiment [1], the system named is cDNA clone MGC:39134 IMAGE:4892821 (human).
For experiment [2], the system named is cDNA clone MGC:40177 IMAGE:5167345, complete cds (human).
Experiment [3] has as its system cDNA clone MGC:40426 IMAGE:5178085, complete cds (human).
Experiment [4] has as its system cDNA clone MGC:48448 IMAGE:5266019 (human).
The subject of experiment [5] is cDNA clone MGC:52019 IMAGE:5188979 (human).
Experiment [6] has as its system cDNA clone MGC:54300 IMAGE:6500495, complete cds (human).
In experiment [7] the test system is cDNA clone MGC:5619 IMAGE:3462332, complete cds (human).
Experiment [8] has as its system cDNA clone MGC:59959 IMAGE:4137660, complete cds (human).
Experiment [9] concerns cDNA clone MGC:64884 IMAGE:5194313 (human).
Experiment [10] concerns cDNA clone MGC:70358 IMAGE:5539182 (human).

Some of the results follow.

On to “GGGAGGCTGAGGCAGG [G4-1 biotinylated (PQS2)]”, for which the binding signal is -0.334 z-score in experiment [1]; -0.334 z-score in experiment [2]; -0.312 z-score in experiment [3]; -0.325 z-score in [4]; -0.328 z-score in experiment [5]; -0.24 z-score in [6]. Further, the binding signal in experiment [7] was -0.286 z-score; in [8], -0.297 z-score; in experiment [9] it was -0.321 z-score; in experiment [10] it was -0.353 z-score.
